Reference: the supplement of paper PMC12873370
Several values for one entry are separate records, joined by “and”; a condition that tells them apart may be missing. Identical values can stand only once. Some of the results follow. Repeats are few or missing, and single values can be far off.

The compounds below were run on PREPP (mouse prostate epithelium Trp53/Pten KO) (assay: cell viability relative to untreated (fraction); higher = less growth inhibition). Settings: 5 µM; 3 days.

Structure (SMILES)	cell viability
CC(=O)SCC(=O)c1ccc(NS(=O)(=O)c2ccc(OCCCN(C)C)cc2)nc1	0.793
CN(C)CCCCC(=O)Nc1ccc(NC(=S)NC(=O)c2ccc(C(C)(C)C)cc2)cc1	0.89
N#CCNC(=O)c1ccc(-c2ccnc(Nc3ccc(N4CCOCC4)cc3)n2)cc1	0.546
CN1CCN(c2cccc(Nc3nc4c(-c5ccc(S(C)(=O)=O)cc5)cccn4n3)c2)CC1	0.549
Cc1nc(C(=O)NCC(=O)O)c(O)c2ccc(Oc3ccccc3)cc12	0.885
O=C(c1ccc(C(=O)N2CCC(N3CCCC3)CC2)c(Nc2ccccc2)c1)N1CCC(N2CCCC2)CC1	0.876
O=C(O)CCNc1cc(N2CCc3ccccc3CC2)nc(-c2ccccn2)n1	0.968
CN1CCc2c(c3ccccc3n2Cc2ccc(C(=O)NO)cc2)C1	0.826 and 0.75
O=C(O)c1ccc(CN2CCC(CN[C@@H]3C[C@H]3c3ccccc3)CC2)cc1	0.916
Cc1cc(CN2CCN(c3c(Br)cnc4nc(-c5ccc(N6CCN(C)CC6)cc5)[nH]c34)CC2)no1	0.748
CC[C@@H]1C(=O)N(C)c2cnc(Nc3ccc(C(=O)NC4CCN(C)CC4)cc3OC)nc2N1C1CCCC1	0.721
O=Nc1ccc(O)c2ncccc12	0.678
CCCc1cc(C)[nH]c(=O)c1CNC(=O)c1cc(-c2ccnc(N3CCN(C)CC3)c2)cc2c1cnn2C(C)C	0.806
Cc1cnc(Nc2ccc(OCCN3CCCC3)cc2)nc1Nc1cccc(S(=O)(=O)NC(C)(C)C)c1	0.519
C[C@@H]1CC(=O)Nc2cccc(-c3ccc4c(c3)c(-c3cnn(C)c3)nn4C)c2N1	0.703
CO[C@@H]1[C@H](N(C)C(=O)c2ccccc2)C[C@H]2O[C@]1(C)n1c3ccccc3c3c4c(c5c6ccccc6n2c5c31)C(=O)NC4	0.471
O=C(NN=Cc1c(O)ccc2ccccc12)c1ccncc1	0.652
C/C=C1\NC(=O)[C@H]2CSSCC/C=C/[C@H](CC(=O)N[C@H](C(C)C)C(=O)N2)OC(=O)[C@H](C(C)C)NC1=O	0.834
COc1cc2c(NC3CCN(C(C)C)CC3)nc(N3CCC(F)(F)CC3)nc2cc1OCCCN1CCCC1	0.978
CC(C)N(C[C@H]1O[C@@H](n2cnc3c(N)ncnc32)[C@H](O)[C@@H]1O)[C@H]1C[C@@H](CCc2nc3cc(C(C)(C)C)ccc3[nH]2)C1	0.877
O=C(NC[C@H](O)CN1CCc2ccccc2C1)c1cc(NC2COC2)ncn1	0.926
CCN(CCCOc1ccc2c(Nc3cc(CC(=O)Nc4cccc(F)c4)[nH]n3)ncnc2c1)CCOP(=O)(O)O	0.859 and 0.771
Nc1nc(OCc2cc(Br)cs2)c2[nH]cnc2n1	0.919
